One molecule from patent US20150266922A1 can be followed below.

No constants are given. Whether binding was seen depends on the method and setting. In cells and extracts the contact can be indirect. Some results given as binding are weak or reduced against the parent protein; the word gives no strength. Tags and fused reporters may be left off the sequences shown.

This experiment addresses SUMO1E67A (UniProt P63165). Put plainly: pull-down of recombinant protein on bead-immobilized SUMO1E67A.

B1: GST-PIAS3 (protein, UniProt Q9Y6X2 1-628, looked up, not shown: a dimerising Fc or GST)
chain: MAELGELKHMVMSFRVSELQVLLGFAGRNKSGRKHELLAKALHLLKSSCAPSVQMKIKELYRRRFPRKTLGPSDLSLLSLPPGTSPVGSPGPLAPIPPTLLAPGTLLGPKREVDMHPPLPQPVHPDVTMKPLPFYEVYGELIRPTTLASTSSQRFEEAHFTFALTPQQVQQILTSREVLPGAKCDYTIQVQLRFCLCETSCPQEDYFPPNLFVKVNGKLCPLPGYLPPTKNGAEPKRPSRPINITPLARLSATVPNTIVVNWSSEFGRNYSLSVYLVRQLTAGTLLQKLRAKGIRNPDHSRALIKEKLTADPDSEVATTSLRVSLMCPLGKMRLTVPCRALTCAHLQSFDAALYLQMNEKKPTWTCPVCDKKAPYESLIIDGLFMEILSSCSDCDEIQFMEDGSWCPMKPKKEASEVCPPPGYGLDGLQYSPVQGGDPSENKKKVEVIDLTIESSSDEEDLPPTKKHCSVTSAAIPALPGSKGVLTSGHQPSSVLRSPAMGTLGGDFLSSLPLHEYPPAFPLGADIQGLDLFSFLQTESQHYGPSVITSLDEQDALGHFFQYRGTPSHFLGPLAPTLGSSHCSATPAPPPGRVSSIVAPGGALREGHGGPLPSGPSLTGCRSDIISLD
With B1, the binding entry is listed as “binds”.
